The text below walks through data of patent publication US7851630B2, “Hydronopol substituted benzimidazolone and quinazolinone derivatives as agonists on human ORL1 receptors” (dated 2010).

Sequences of proteins named here, by UniProt entry; tags and fusion partners are left off.
UniProt P41146, whole entry: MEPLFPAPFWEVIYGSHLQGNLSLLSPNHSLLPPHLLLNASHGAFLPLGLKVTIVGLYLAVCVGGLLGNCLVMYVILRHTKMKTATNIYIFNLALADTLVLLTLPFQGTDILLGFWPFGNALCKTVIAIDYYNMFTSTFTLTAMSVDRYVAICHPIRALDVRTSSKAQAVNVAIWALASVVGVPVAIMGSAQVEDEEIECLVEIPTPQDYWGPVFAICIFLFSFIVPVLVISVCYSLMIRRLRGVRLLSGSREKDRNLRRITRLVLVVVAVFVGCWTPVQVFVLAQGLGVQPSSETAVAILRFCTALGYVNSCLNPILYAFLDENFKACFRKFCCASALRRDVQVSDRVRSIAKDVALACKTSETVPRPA
UniProt P35372, whole entry: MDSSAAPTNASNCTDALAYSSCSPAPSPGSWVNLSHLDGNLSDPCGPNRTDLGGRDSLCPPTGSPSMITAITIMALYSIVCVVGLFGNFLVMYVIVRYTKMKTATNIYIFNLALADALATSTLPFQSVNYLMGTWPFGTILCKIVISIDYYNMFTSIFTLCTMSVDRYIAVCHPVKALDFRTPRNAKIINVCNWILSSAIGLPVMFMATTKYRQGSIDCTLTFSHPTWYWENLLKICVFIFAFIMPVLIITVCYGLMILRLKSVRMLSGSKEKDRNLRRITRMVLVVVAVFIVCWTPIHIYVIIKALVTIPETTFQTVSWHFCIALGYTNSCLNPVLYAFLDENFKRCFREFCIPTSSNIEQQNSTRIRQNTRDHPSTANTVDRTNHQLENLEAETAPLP

SMILES strings stand for the structures. The match of structure and compound is tentative. Some compounds may have been tested in ways that are not shown here.

Experiment [1] addresses T1, ORL1 receptor (Homo sapiens, UniProt P41146). Put plainly: Affinity for human ORL1 receptors, [3H]-nociceptin receptor binding assay. The conditions noted are these: membranes of CHO cells expressing human ORL1 receptor, tested form: HCl.
In experiment [2] the test system is conditioned ultrasonic distress vocalisation. The conditions noted are these: tested form: HCl.
The target in a further experiment is human μ-opiate receptor (Homo sapiens, UniProt P35372). Put plainly: Affinity for μ-opiate receptors, [3H]-naloxone receptor binding assay. The conditions noted are these: membranes of CHO cells expressing human μ-opiate receptor, tested form: HCl.
The target of experiment [3] is T1, ORL1 receptor. Put plainly: In vitro ORL1 receptor agonism, cAMP assay. As to conditions: tested form: HCl. In general terms: cAMP levels reflect the balance of adenylyl cyclase and phosphodiesterase activity.

Take `CC1(C)[C@H]2CC[C@@H](CCN3CCC(n4c(=O)[nH]c5ccccc54)CC3)[C@@H]1C2`: on ORL1 receptor [1], the “affinity ORL1 pKi” value turned out to be 8.4. For the same molecule, the “In vivo agonism C.U.D.V. i.p. ED50” value in experiment [2] (intraperitoneal administration) was 1.4 mg/kg. For the same molecule, the “In vivo agonism C.U.D.V. p.o. ED50” value in experiment [2] (oral administration) stood at 6.0 mg/kg. Also, the “affinity μ-opiate pKi” value at human μ-opiate receptor came to 7.2. The “In vitro agonism cAMP assay pEC50” value on ORL1 receptor [3] was 8.6.
